Measurements reported in the supplement of paper PMC12819154, “High-throughput peptide-centric local stability assay extends protein–ligand identification to membrane proteins, tissues and bacteria” (Nature Structural & Molecular Biology, 2025).
The list shows a part of the results. Most entries show no effect beyond the scatter of the controls.

Amino acid sequences for entries named in this document (tags omitted). A change or cut given only in a name is not applied to a line headed by its entry.
UniProt O14979: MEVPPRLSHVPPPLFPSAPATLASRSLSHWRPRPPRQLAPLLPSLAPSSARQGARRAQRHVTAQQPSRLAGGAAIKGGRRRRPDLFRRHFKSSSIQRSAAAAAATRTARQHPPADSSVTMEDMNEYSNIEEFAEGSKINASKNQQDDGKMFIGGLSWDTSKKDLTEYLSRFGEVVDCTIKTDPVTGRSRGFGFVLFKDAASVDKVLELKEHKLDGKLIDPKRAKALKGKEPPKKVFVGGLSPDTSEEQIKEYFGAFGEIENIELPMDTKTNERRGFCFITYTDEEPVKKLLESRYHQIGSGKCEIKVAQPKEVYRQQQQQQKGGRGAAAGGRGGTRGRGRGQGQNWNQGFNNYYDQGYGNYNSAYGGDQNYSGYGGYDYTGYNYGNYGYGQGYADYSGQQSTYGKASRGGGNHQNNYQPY
UniProt A6NM28: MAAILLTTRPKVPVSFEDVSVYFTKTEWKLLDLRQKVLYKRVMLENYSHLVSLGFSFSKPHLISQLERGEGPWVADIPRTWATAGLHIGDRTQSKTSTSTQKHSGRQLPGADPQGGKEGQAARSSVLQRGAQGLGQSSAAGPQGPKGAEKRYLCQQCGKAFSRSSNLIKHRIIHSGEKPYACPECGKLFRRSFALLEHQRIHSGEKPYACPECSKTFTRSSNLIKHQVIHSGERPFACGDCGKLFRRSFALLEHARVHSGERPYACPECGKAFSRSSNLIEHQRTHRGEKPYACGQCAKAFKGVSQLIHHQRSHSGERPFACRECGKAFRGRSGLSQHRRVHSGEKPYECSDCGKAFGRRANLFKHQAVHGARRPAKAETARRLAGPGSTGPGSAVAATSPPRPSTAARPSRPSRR
UniProt O00203: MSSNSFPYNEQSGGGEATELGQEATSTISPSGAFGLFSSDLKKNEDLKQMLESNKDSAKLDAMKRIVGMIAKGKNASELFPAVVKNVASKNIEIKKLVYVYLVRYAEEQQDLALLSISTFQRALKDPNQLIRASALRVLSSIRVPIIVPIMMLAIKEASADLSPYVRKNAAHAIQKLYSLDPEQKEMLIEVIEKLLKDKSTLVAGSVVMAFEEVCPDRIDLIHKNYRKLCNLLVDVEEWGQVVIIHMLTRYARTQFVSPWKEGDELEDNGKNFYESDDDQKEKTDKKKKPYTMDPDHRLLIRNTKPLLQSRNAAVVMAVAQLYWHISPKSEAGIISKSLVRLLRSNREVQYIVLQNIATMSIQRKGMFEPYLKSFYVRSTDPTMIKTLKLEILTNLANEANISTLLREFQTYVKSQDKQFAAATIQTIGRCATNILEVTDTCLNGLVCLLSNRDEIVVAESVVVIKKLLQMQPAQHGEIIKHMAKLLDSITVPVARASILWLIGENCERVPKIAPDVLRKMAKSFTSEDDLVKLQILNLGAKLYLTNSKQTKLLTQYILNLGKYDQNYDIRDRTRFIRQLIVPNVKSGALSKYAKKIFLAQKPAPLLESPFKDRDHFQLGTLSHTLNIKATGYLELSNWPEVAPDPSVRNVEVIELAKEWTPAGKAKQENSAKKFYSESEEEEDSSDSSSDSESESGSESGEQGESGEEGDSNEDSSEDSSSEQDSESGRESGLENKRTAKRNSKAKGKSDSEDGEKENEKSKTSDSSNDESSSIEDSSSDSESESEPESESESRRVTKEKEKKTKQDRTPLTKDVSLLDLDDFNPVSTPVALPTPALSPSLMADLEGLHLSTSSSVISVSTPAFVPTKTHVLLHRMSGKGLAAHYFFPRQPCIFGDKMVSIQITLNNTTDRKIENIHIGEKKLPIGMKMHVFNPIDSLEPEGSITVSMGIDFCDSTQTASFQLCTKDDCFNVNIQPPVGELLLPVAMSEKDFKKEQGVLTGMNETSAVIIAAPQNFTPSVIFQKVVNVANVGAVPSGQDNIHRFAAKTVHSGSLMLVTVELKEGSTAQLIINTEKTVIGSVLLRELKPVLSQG
UniProt A6NF01, whole entry: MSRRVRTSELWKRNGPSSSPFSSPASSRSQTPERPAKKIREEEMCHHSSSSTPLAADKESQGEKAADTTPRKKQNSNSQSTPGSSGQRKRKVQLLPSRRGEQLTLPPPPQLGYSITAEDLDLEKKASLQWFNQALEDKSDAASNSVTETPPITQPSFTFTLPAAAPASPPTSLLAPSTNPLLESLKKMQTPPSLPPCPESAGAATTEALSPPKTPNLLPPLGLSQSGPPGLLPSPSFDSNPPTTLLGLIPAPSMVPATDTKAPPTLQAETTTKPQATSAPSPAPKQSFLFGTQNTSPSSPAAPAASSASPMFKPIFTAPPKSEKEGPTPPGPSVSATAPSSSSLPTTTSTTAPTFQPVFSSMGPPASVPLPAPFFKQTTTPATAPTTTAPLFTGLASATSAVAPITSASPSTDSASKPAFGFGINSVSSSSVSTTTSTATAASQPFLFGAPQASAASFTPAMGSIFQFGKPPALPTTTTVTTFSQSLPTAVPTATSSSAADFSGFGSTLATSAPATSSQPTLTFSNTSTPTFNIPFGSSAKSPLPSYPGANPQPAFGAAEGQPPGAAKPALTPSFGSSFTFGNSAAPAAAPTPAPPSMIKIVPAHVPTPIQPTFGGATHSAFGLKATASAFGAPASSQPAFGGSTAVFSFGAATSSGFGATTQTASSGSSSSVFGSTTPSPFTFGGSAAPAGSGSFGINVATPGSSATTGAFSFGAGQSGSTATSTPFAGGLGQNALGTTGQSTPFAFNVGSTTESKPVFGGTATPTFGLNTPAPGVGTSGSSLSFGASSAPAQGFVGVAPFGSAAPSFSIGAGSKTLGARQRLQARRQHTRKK
UniProt A8MWD9, whole entry: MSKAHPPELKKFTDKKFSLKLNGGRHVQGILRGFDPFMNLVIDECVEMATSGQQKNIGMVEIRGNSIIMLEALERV
UniProt O00584, whole entry: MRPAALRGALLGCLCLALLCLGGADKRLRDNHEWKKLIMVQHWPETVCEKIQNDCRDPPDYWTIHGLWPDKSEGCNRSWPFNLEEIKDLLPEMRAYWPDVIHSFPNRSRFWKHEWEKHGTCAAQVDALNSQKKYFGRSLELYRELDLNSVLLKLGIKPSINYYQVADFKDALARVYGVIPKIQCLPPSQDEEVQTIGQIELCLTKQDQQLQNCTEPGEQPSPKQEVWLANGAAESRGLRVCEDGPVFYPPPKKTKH
UniProt O14503, whole entry: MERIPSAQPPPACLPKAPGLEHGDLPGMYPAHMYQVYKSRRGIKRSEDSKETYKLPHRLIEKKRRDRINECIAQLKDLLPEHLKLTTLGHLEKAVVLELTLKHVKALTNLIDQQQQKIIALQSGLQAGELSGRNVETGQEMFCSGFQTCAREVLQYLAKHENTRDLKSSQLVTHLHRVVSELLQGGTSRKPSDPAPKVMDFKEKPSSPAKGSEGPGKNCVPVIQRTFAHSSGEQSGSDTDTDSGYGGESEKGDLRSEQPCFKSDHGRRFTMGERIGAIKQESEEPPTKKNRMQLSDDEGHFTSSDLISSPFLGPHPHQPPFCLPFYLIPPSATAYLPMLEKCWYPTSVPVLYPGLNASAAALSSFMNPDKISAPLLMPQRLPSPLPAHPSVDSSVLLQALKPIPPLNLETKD
UniProt A6NKT7, whole entry: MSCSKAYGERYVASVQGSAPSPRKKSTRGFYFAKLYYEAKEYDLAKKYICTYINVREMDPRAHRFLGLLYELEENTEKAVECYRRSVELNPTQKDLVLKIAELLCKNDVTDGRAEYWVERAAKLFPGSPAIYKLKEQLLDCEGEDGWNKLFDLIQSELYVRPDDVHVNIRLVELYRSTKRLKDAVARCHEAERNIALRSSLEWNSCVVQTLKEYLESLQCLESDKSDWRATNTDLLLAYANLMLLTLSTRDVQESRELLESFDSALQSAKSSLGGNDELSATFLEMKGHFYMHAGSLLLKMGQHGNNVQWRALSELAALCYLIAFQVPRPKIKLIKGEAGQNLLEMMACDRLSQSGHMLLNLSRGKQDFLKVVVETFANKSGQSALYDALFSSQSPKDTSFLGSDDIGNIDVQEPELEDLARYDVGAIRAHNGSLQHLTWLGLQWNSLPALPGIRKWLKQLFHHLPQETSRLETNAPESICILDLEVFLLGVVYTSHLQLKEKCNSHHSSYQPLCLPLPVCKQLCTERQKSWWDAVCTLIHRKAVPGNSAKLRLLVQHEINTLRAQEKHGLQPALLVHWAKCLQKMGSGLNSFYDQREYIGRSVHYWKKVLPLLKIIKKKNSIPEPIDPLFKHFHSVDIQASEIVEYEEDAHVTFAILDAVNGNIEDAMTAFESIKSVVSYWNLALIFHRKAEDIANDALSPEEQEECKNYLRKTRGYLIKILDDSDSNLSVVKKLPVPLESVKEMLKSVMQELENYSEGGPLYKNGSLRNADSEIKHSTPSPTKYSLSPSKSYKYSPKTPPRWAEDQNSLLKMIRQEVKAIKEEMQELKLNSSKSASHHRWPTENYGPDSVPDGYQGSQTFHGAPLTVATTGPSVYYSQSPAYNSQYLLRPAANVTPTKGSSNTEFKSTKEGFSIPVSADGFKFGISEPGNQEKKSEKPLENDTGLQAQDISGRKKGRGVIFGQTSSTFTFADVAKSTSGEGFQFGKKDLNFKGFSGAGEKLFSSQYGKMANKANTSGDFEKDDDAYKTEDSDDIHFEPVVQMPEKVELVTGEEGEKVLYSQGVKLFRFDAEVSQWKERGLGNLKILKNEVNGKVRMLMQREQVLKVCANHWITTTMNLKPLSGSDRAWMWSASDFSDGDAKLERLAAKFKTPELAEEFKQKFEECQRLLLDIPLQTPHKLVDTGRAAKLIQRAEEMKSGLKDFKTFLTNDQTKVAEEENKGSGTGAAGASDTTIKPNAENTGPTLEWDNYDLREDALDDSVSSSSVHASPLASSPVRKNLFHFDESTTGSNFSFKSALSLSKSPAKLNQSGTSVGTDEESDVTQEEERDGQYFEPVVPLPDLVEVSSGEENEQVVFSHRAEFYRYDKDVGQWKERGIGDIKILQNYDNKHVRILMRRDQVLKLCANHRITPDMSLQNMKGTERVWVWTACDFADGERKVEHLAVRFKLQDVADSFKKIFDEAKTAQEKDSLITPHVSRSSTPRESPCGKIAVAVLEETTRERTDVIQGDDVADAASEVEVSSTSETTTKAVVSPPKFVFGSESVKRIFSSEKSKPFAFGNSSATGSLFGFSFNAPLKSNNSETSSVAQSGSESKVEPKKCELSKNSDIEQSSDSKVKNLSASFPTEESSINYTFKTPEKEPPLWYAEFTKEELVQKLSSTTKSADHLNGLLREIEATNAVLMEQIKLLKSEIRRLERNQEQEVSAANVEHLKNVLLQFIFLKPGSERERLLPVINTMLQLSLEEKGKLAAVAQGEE
UniProt O14713: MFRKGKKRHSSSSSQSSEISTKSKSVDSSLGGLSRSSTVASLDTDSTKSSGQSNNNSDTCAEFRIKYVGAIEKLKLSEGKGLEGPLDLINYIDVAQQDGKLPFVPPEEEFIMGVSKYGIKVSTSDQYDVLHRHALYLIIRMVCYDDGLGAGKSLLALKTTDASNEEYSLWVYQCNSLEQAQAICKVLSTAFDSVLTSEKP
UniProt O14980, whole entry: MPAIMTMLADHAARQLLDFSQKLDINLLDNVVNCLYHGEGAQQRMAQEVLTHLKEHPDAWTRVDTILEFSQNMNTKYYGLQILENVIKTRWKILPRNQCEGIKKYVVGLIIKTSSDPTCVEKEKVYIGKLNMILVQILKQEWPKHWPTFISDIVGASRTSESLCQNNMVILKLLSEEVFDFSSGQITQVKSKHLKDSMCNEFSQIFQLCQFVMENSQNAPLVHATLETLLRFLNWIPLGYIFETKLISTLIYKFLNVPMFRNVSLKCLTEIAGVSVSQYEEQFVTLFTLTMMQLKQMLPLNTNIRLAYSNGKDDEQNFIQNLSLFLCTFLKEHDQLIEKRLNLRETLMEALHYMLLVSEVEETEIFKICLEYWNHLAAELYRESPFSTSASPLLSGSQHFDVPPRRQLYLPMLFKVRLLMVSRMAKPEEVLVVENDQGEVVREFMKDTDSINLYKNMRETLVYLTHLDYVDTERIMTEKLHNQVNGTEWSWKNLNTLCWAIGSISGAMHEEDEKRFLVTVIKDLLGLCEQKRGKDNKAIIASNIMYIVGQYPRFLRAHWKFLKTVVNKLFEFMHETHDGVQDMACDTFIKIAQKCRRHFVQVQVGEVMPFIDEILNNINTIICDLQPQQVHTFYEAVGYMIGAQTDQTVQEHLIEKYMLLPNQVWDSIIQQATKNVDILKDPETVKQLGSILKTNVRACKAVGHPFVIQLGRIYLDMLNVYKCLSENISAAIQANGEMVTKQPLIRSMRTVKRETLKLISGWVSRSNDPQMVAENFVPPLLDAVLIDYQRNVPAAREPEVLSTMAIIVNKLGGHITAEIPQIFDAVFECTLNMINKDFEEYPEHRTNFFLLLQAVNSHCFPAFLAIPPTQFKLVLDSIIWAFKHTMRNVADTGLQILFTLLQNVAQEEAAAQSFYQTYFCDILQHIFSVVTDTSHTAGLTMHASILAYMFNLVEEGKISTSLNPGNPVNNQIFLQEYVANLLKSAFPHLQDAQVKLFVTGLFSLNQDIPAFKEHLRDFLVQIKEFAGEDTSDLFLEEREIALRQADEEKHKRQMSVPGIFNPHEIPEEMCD

compound: CN[C@@H]1C[C@H]2O[C@@](C)([C@@H]1OC)n1c3ccccc3c3c4c(c5c6ccccc6n2c5c31)C(=O)NC4 [staurosporine]; experiment: log2 fold change of tryptic peptide abundance, ligand vs vehicle (limited proteolysis) (log2 ratio); higher = more trypsin-susceptible (destabilized); conditions: ligand concentration: 20 uM; sample: K562 cleared lysate; digestion: 4 min, 22 C (HT-PELSA RT4min, Orbitrap Astral)

| Target | log2 fold change |
| --- | --- |
| UNC119B (peptide sequence: AAAAASAAGPGGLVAGKEEKK, peptide start residue: 8) (UniProt A6NIH7) | -0.0838 |
| KMT2D (peptide sequence: NTLRQEK, peptide start residue: 2698) (UniProt O14686) | -1.29 |
| UniProt O14979 (peptide sequence: GFGFVLFKDAASVDKVLELK, peptide start residue: 190) | 0.309 |
| ZFP92 (peptide sequence: THRGEKPYACGQCAK, peptide start residue: 285) (UniProt A6NM28) | 1.4 |
| CBX4 (peptide sequence: RREEEVSGVSDPQPQDAGSR, peptide start residue: 327) (UniProt O00257) | -0.323 |
| AP3B1 (peptide sequence: LEILTNLANEANISTLLR, peptide start residue: 390) (UniProt O00203) | -0.605 |
| GEMIN2 (peptide sequence: TPQEYLR, peptide start residue: 48) (UniProt O14893) | -0.0703 |
| UniProt A6NF01 (peptide sequence: IVPAHVPTPIQPTFGGATHSAFGLK, peptide start residue: 996) | 0.0719 |
| SNRPGP15 (peptide sequence: AHPPELKK, peptide start residue: 4) (UniProt A8MWD9) | 0.123 |
| RNASET2 (peptide sequence: ELDLNSVLLK, peptide start residue: 144) (UniProt O00584) | -0.427 |
| BHLHE40 (peptide sequence: AVVLELTLK, peptide start residue: 94) (UniProt O14503) | -0.247 |
| ACOX3 (peptide sequence: TLLPMPGVMVGDIGKK, peptide start residue: 235) (UniProt O15254) | -0.716 |
| APOL1 (peptide sequence: ANLQSVPHASASRPR, peptide start residue: 291) (UniProt O14791) | 0.206 |
| DVL1 (peptide sequence: YGTSPCSSAVTR, peptide start residue: 377) (UniProt O14640) | -0.367 |
| CPLX1 (peptide sequence: YLPGPLQDMLKK, peptide start residue: 123) (UniProt O14810) | 0.131 |
| DDX3X (peptide sequence: SFLLDLLNATGK, peptide start residue: 429) (UniProt O00571) | 0.423 |
| OGT (peptide sequence: AFLDSLPDVK, peptide start residue: 743) (UniProt O15294) | 0.167 |
| UniProt A6NKT7 (peptide sequence: KVEHLAVR, peptide start residue: 2415) | 0.426 |
| ITGB1BP1 (peptide sequence: SVDSSLGGLSR, peptide start residue: 25) (UniProt O14713) | -0.0561 |
| PMM2 (peptide sequence: TMGYSVTAPEDTRR, peptide start residue: 226) (UniProt O15305) | -0.144 |
| UniProt O00472 (peptide sequence: STPMNPANTIR, peptide start residue: 183) | 0.266 |
| IFIT3 (peptide sequence: AIELFQR, peptide start residue: 260) (UniProt O14879) | -0.111 |
| XPO1 (peptide sequence: LFEFMHETHDGVQDMACDTFIK, peptide start residue: 569) (UniProt O14980) | 0.147 |
| KIAA1324L (peptide sequence: KNQKLEYK, peptide start residue: 952) (UniProt A8MWY0) | -0.424 |
| IFRD1 (peptide sequence: KHTYDTFK, peptide start residue: 371) (UniProt O00458) | -0.356 |
| KPNA4 (peptide sequence: GRDLETMR, peptide start residue: 19) (UniProt O00629) | 0.589 |
| ARID1A (peptide sequence: SSEAIKESSK, peptide start residue: 1929) (UniProt O14497) | -0.692 |
| WWP2 (peptide sequence: TTTWQRPTAEYVR, peptide start residue: 355) (UniProt O00308) | -0.15 |

Some values from above:
Under log2 fold change, ZFP92 (peptide sequence: THRGEKPYACGQCAK, peptide start residue: 285) (UniProt A6NM28) is listed with 1.4
Under log2 fold change, WWP2 (peptide sequence: TTTWQRPTAEYVR, peptide start residue: 355) (UniProt O00308) is listed with -0.15
